Data on 16 targets can be found in the supplement of paper PMC11006884.

Amino acid sequences for entries named in this document (tags omitted). A change or cut given only in a name is not applied to a line headed by its entry.
UniProt Q9UHV7: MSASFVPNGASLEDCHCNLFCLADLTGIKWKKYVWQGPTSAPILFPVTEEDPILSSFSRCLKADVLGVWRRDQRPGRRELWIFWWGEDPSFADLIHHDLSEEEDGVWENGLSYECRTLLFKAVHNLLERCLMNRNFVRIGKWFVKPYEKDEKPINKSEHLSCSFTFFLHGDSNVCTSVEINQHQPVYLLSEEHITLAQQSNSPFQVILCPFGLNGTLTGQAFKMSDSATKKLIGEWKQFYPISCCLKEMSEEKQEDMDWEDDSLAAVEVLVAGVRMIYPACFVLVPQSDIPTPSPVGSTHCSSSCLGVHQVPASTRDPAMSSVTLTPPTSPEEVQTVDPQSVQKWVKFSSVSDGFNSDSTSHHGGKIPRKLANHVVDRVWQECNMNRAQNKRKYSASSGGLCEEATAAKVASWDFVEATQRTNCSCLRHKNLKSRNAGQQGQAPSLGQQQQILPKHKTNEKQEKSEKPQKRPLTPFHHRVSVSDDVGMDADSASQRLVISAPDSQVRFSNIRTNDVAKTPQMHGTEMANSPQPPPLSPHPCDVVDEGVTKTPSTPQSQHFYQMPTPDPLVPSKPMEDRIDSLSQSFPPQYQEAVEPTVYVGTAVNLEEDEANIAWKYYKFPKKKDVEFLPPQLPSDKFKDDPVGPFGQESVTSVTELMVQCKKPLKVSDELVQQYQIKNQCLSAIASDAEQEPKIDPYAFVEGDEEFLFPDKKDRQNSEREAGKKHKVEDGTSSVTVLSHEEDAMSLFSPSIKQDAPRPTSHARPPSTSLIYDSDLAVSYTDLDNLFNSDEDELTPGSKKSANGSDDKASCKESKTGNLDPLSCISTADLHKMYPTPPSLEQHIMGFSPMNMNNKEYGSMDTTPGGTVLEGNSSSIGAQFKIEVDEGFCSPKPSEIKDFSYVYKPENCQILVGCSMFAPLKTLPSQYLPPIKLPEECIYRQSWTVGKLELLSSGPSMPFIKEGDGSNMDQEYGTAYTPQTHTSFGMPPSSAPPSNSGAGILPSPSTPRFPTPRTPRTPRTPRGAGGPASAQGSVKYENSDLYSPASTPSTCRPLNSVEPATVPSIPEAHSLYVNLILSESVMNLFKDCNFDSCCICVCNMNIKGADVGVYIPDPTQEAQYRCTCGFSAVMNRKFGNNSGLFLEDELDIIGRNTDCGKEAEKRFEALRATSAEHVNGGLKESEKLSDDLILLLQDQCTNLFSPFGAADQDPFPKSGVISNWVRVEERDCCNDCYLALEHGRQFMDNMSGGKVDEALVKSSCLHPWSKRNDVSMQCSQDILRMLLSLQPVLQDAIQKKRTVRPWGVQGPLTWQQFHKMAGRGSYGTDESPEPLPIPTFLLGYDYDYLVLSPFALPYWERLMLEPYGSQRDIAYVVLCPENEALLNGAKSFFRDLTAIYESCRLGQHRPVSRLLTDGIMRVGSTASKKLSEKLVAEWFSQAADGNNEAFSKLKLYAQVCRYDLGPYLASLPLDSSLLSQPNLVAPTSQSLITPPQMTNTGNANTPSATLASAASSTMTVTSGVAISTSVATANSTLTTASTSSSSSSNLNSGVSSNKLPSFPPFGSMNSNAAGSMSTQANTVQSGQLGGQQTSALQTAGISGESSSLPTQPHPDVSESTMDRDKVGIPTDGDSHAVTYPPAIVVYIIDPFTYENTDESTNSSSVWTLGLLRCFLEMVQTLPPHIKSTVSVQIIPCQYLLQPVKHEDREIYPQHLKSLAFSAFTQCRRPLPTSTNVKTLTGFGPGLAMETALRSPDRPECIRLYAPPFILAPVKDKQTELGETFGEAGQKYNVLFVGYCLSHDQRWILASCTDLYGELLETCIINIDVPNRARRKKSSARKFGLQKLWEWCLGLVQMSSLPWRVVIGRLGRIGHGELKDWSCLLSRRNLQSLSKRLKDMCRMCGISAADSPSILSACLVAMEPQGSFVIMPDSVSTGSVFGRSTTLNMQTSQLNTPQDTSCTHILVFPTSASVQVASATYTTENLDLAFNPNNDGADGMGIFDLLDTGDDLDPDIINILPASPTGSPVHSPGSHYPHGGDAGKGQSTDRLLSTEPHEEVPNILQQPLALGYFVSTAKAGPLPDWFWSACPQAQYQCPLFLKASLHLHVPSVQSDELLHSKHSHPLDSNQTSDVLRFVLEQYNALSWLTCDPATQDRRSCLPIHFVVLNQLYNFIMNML
UniProt Q9Y2A7: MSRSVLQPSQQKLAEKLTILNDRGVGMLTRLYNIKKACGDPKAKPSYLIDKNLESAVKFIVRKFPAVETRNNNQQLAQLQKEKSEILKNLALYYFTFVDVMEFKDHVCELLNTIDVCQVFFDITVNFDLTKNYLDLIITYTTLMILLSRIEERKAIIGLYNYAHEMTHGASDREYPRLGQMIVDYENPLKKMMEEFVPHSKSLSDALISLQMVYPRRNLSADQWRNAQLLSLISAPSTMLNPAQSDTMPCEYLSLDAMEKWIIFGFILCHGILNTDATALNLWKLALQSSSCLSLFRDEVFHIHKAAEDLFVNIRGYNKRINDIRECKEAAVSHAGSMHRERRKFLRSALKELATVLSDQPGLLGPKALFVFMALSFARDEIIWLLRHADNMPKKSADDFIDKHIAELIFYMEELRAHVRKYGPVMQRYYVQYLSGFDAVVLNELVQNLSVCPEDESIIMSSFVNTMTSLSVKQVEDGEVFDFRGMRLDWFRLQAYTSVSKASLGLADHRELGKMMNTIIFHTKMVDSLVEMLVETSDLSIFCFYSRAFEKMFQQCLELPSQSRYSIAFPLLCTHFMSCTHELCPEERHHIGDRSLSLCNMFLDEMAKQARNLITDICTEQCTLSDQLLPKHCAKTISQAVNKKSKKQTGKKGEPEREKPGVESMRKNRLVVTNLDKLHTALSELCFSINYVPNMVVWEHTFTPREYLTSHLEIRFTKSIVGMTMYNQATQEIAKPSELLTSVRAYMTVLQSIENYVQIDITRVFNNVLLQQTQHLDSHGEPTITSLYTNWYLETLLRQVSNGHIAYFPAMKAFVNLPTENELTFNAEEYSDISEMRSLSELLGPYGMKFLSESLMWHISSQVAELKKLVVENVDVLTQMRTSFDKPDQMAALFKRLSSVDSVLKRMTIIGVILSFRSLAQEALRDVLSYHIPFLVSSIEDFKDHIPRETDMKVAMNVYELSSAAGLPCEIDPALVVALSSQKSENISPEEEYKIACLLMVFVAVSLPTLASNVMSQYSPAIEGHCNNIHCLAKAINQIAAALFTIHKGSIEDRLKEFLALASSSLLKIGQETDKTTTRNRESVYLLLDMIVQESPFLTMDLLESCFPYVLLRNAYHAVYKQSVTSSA
UniProt Q9ULP9: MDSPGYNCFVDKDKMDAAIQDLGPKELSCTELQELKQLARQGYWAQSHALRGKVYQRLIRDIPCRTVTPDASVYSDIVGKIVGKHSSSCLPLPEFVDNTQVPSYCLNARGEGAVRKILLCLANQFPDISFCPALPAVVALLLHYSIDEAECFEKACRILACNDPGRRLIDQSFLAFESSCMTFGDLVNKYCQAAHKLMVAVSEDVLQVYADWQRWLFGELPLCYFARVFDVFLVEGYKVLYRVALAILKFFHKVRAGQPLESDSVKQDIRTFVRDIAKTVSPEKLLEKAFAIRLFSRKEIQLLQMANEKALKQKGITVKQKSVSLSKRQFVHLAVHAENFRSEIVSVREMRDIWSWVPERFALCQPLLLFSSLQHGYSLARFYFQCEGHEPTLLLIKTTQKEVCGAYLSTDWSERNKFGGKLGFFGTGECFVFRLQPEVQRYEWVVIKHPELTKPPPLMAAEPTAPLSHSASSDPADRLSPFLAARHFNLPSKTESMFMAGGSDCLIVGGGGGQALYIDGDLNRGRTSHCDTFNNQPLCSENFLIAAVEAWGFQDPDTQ
UniProt Q9UHI6: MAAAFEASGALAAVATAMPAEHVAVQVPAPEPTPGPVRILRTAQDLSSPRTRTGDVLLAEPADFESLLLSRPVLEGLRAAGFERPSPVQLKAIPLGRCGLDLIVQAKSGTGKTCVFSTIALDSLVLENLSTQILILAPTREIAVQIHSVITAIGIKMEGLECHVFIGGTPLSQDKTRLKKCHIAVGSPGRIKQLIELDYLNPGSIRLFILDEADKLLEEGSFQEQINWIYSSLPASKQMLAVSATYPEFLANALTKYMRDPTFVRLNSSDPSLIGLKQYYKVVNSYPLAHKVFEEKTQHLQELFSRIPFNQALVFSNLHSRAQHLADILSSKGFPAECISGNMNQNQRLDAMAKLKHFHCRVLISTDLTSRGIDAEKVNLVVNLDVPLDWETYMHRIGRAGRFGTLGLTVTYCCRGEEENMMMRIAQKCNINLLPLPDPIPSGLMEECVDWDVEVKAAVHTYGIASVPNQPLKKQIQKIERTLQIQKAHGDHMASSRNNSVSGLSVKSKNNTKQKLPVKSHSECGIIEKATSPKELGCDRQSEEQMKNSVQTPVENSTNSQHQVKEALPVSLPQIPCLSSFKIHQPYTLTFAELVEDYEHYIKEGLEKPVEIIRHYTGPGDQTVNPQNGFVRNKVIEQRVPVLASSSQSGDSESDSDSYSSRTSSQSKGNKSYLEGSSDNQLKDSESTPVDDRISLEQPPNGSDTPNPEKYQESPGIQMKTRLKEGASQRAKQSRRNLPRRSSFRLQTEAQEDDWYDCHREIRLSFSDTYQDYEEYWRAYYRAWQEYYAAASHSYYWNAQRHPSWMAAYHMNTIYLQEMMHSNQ
UniProt Q9UJF2: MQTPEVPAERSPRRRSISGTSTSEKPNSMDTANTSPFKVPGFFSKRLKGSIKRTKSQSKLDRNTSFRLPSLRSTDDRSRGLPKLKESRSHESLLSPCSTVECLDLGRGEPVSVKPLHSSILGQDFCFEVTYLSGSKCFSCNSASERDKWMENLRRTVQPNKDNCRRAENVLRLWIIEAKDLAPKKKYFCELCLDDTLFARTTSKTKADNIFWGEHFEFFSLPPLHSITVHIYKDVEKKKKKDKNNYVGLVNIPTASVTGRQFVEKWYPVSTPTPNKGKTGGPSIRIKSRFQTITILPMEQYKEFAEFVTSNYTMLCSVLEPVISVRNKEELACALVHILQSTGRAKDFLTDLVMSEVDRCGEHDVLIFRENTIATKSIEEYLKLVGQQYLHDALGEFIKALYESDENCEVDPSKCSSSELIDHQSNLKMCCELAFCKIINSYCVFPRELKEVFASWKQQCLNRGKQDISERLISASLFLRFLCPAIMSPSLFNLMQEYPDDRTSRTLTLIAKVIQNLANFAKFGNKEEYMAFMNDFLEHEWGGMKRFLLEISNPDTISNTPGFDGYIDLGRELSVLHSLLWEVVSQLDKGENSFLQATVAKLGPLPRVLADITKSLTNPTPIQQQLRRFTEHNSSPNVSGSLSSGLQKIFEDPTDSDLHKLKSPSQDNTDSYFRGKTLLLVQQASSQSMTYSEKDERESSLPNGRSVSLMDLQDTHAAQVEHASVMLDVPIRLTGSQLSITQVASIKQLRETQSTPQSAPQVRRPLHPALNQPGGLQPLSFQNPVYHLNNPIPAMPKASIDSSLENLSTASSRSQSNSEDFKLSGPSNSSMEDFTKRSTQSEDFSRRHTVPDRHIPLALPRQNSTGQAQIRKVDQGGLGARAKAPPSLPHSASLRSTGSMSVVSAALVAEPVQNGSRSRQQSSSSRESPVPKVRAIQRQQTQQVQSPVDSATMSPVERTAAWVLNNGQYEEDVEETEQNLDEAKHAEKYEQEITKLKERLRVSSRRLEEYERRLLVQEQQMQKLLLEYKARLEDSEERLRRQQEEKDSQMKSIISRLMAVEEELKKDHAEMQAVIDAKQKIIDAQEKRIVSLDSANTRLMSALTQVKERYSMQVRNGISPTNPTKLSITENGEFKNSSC
UniProt Q9Y224: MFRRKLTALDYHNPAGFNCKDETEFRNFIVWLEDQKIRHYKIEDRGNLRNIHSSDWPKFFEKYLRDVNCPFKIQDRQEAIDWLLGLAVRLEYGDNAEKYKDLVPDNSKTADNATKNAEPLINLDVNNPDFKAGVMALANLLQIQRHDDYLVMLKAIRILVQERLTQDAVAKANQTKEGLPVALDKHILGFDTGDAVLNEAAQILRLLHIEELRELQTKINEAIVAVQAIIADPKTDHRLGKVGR
UniProt Q9UK45: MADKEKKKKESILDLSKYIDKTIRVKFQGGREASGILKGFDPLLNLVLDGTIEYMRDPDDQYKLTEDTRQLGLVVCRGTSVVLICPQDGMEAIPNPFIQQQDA
UniProt Q9UHD1: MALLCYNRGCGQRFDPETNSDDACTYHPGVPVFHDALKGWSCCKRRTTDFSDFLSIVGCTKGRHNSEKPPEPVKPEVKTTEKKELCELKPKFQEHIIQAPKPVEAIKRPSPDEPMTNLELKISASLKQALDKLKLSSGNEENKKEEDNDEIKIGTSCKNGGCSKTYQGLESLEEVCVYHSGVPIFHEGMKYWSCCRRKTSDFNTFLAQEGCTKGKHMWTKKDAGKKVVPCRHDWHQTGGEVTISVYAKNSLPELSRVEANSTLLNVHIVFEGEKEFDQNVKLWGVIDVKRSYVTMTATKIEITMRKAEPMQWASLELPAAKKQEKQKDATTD

Shown are results outside the selection of targets with a hit, which stands elsewhere. Single values of this set are uncertain. The list shows a part of the results, in another mix than the full data.

Compound in this assay: COC(=O)/C=C/c1ccccc1 [methyl cinnamate]
Briefly: log2 ratio of iodoacetamide-alkyne labeling of the cysteine site, DMSO over compound (competition); higher = stronger covalent engagement of the cysteine by the compound, active = 1 or more. As to conditions: 500 µM; treatment time 1 h; system: HEK293T cell lysate. An outline of the steps:
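HEK293T lysate (2 mg/mL) was incubated with electrophile (500 µM) or vehicle for 1 h at ambient temperature and then with iodoacetamide alkyne for 1 h. Labelled proteins were clicked to sCIP-TMT reagents, pooled, digested, enriched on streptavidin and measured by Orbitrap Eclipse LC-MS/MS with FAIMS, with FragPipe quantification. The per-cysteine log2 competition ratio is mean control-channel reporter intensity over mean compound-channel reporter intensity. Across three replicates with duplicate channels, cysteines quantified in only one replicate were excluded.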
As to MED13 C402 (UniProt Q9UHV7), the “log2 ratio of iodoacetamide-alkyne labeling” value (shortened to “log2 ratio”) was inactive: 0.216.
As for GTF3C4 C713 (UniProt Q9UKN8), the figure is inactive: 0.112; as for BAZ2A C1480 (UniProt Q9UIF9), inactive: 0.0318; as for NCKAP1 C622 (UniProt Q9Y2A7), inactive: 0.2.
The figure for TBC1D24 C8 (UniProt Q9ULP9) is inactive: 0.0354; for DDX20 C524 (UniProt Q9UHI6) it is inactive: 0.299; for SAMHD1 C522 (UniProt Q9Y3Z3) it is inactive: 0.2.
As for RASAL2 C360 (UniProt Q9UJF2), the figure is inactive: -0.302; as for CIZ1 C252 (UniProt Q9ULV3), inactive: 0.195; as for UniProt Q9Y224_C19, inactive: 0.214.
As to LSM7 C85 (UniProt Q9UK45), the “log2 ratio” value was inactive: 0.0792.
The figure for SRRM2 C1016 (UniProt Q9UQ35) is inactive: 0.705; for UniProt Q9UPN7_C795 it is inactive: -0.0542.
Regarding RASAL2 C333 (UniProt Q9UJF2), the “log2 ratio” value is inactive: -0.0963.
As for STX8 C14 (UniProt Q9UNK0), the figure is inactive: -0.0259; as for CHORDC1 C86 (UniProt Q9UHD1), inactive: 0.471.
